The values below come from PMC10002782.

Sequences of proteins named here, by UniProt entry; tags and fusion partners are left off.
UniProt P70536: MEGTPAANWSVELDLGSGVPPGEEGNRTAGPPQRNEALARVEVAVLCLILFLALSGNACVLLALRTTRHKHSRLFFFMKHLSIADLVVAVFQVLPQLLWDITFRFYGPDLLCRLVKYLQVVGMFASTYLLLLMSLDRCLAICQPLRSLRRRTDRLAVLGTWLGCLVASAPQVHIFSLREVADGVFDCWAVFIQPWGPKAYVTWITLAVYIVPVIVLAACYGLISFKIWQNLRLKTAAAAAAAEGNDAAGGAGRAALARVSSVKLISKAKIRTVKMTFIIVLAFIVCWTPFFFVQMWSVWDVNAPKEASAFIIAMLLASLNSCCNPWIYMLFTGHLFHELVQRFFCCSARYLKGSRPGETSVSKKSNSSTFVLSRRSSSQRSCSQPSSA
UniProt P61169: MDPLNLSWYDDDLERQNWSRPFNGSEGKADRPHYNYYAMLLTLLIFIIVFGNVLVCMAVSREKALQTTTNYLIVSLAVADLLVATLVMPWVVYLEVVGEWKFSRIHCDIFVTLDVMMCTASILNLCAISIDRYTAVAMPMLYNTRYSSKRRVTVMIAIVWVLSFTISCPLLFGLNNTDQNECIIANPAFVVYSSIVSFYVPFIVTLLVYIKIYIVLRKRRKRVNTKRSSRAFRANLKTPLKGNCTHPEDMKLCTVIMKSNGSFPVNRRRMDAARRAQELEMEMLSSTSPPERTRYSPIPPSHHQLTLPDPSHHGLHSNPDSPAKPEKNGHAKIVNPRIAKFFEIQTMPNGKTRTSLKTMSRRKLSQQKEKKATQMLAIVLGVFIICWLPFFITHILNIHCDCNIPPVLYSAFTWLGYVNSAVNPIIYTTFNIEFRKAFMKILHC

Read-outs that look alike come from different tables or passages of the source. These are yes or no findings as the source states them, for the method shown. Binding seen in cells or lysates may run through a third protein. Some entries that bind do so weakly or less than the wild type.

The target of test [1] is oxytocin receptor (rat (endogenous in striatal gliosomes and brain slices)) (UniProt P70536). The experiment in a line: co-IP; Triton X-100-soluble membrane proteins (300 µg) of freshly isolated rat striatal gliosomes; immunoprecipitated with 1 µg anti-D2 receptor or anti-OTR antibody overnight at 4 °C, protein G-sepharose; 50 mM sodium borate, 0.1 mM EDTA, pH 7.5; immunoblot. A general note: A western blot detects proteins with antibodies after separation by electrophoresis.

In test [2] the target is dopamine D2 receptor (rat (endogenous in striatal gliosomes and brain slices)) (UniProt P61169). The experiment in a line: proximity ligation; in situ PLA on 10-15 µm rat hemibrain slices (ventral and dorsal striatum); anti-D2 conjugated with PLA PLUS and anti-OTR with PLA MINUS oligonucleotides; astrocytes marked by GFAP and ezrin.
For test [3] the target is unchanged. The experiment in a line: co-IP; Triton X-100-soluble membrane proteins (300 µg) of freshly isolated rat striatal gliosomes; immunoprecipitated with 1 µg anti-D2 receptor or anti-OTR antibody overnight at 4 °C, protein G-sepharose; 50 mM sodium borate, 0.1 mM EDTA, pH 7.5; immunoblot.
For test [4] the target is unchanged. Described as above. The source holds these as a separate data set.
Test [5] deals with oxytocin receptor (rat (endogenous in striatal gliosomes and brain slices)) (UniProt P70536). Described as above. This is another data set of the same source.

As for “dopamine D2 receptor (from UniProt P61169 1-444)”, the binding entry in test [1] is given as “binds”.
With “oxytocin receptor (from UniProt P70536 1-388)”, the binding entry in test [2] and in test [3] was “binds” in each case.

B1: flotillin-1 (protein, UniProt Q9Z1E1 1-428)
chain: MFFTCGPNEAMVVSGFCRSPPVMVAGGRVFVLPCIQQIQRISLNTLTLNVKSEKVYTRHGVPISVTGIAQVKIQGQNKEMLAAACQMFLGKTEAEIAHIALETLEGHQRAIMAHMTVEEIYKDRQKFSEQVFKVASSDLVNMGISVVSYTLKDIHDDQDYLHSLGKARTAQVQKDARIGEAEAKRDAGIREAKAKQEKVSAQCLSEIEMAKAQRDYELKKATYDIEVNTRRAQADLAYQLQVAKTKQQIEEQRVQVQVVERAQQVAVQEQEIARREKELEARVRKPAEAERYRLERLAEAEKAQLIMQAEAEAESVRMRGEAEAFAVGARARAEAEQMAKKAEAFQMYQEAAQLDMLLEKLPQVAEEISGPLTSANKITLVSSGSGTMGAAKVTGEVLDILSRLPESVERLTGVSISQVNHNKPLRTA
For the molecule B1, the binding result in test [4] and in test [5] was “binds” each time.
